Data taken from PubChem BioAssay AID540276 (National Center for Advancing Translational Sciences (NCATS), 2011).
Screen size: about 300,000 compounds; about 5,400 (1.8%) were called active. Inconclusive results, whose numbers are uncertain, are shown with a selection of clear calls. Calls come from the whole dose curve; tested in HEK293 cells. A potency beside an inconclusive call is a rough fit, not a confirmed value.

Assay: qHTS for inhibitors of binding or entry into cells for Marburg Virus
Details: Marburg virus pseudotyped entry inhibition, cell reporter; series mostly up to 37.8 µM
Potency is the fitted concentration of half-maximal effect.

| Structure (SMILES) | Potency |
| --- | --- |
| O=c1c2cn[nH]c2[nH]c(=S)n1-c1ccccc1Cl | inactive |
| O=C(CSc1ccc([N+](=O)[O-])cn1)Nc1ccc2[nH]c(=O)[nH]c2c1 | inactive |
| COc1ccc(Cc2nnc(SCC(=O)N(C)CC(=O)Nc3ccc(C)cc3)o2)cc1 | inactive |
| COc1ccc(/C=N/NC(=O)c2ccoc2C)cc1COc1c(C)cccc1C | active: 5.62 µM |
| O=C1CSC(c2ccc(Cl)cc2)N1C1CCCCC1 (configuration not stated) | inconclusive: 31.6 µM [inhibitor, single point] |
| CCOc1ccc(NC(=O)CCNc2c(N3CCCC3)c(=O)c2=O)cc1 | inconclusive: 0.355 µM [activator, full curve] |
| COc1ccc(NS(=O)(=O)c2ccc(N)cc2)nn1 | inactive |
| COc1cc([N+](=O)[O-])ccc1N/C=C/C(=O)c1cccs1 | inconclusive: 2.91 µM [inhibitor, full curve, poor fit] |
| CCCCN(Cc1ccccc1)C1CCN(Cc2ccccc2)CC1 | inconclusive: 11.2 µM [inhibitor, partial curve, poor fit] |
| N=c1oc2ccc(Cl)cc2cc1C(=O)Nc1ccc(F)cc1 | inconclusive: 6.31 µM [activator, single point] |
| CCC(=O)N1CCc2cc(Br)cc(S(=O)(=O)N3CCCC(C(=O)NC(C)(C)C)C3)c21 (configuration not stated) | inconclusive: 35.5 µM [inhibitor, partial curve, poor fit] |
| CC1(C(=O)Nc2ccc3c(c2)OCCO3)CC1(Cl)Cl (configuration not stated) | inconclusive: 25.1 µM [activator, single point] |
| N#C/C(=C(\O)c1ccco1)c1ccccn1 | inactive |
| c1cnc2nc(-c3ccc4c(c3)OCO4)cn2c1 | inconclusive: 35.5 µM [inhibitor, single point] |
| CCN1CCN(C(=S)NC(C)c2ccccc2)CC1 (configuration not stated) | inconclusive: 5.8 µM [activator, full curve, poor fit] |
| COc1cc(C(=O)NC(c2ccccc2)c2ccccc2)cc(OC)c1OC | inactive |
| COc1ccc2ccccc2c1CN1CCN(Cc2ccccc2)CC1 | inconclusive: 29.1 µM [inhibitor, single point] |
| CCOC(=O)c1cnc2c(C)c(Cl)ccc2c1N1CCN(CC)CC1 | inconclusive: 35.5 µM [inhibitor, single point] |
| COc1ccccc1C=NNC(=O)NN=Cc1ccccc1OC | inactive |
| COc1ccccc1OCC(=O)Nc1ccc(Cl)cc1 | inactive |
| O=C(Nc1cccc2ccccc12)N1CCCN(c2c(Cl)cncc2Cl)CC1 | inconclusive: 3.16 µM [inhibitor, single point] |
| O=C(CN1C(=O)c2ccccc2S1(=O)=O)N1CCCCC1 | inconclusive: 7.08 µM [activator, partial curve, poor fit] |
| CCOc1ccc(-n2c(SCC(=O)Nc3cc(C(=O)O)ccc3Cl)nc3ccccc3c2=O)cc1 | inactive |
| COc1ccc(C=C2C=C(C(C)(C)C)C(=O)C(C(C)(C)C)=C2)cc1OC | inconclusive: 17.8 µM [inhibitor, partial curve, poor fit] |

3 entries drawn at random from those above:

| Structure (SMILES) | Potency |
| --- | --- |
| O=C(Nc1cccc2ccccc12)N1CCCN(c2c(Cl)cncc2Cl)CC1 | inconclusive: 3.16 µM [inhibitor, single point] |
| CCOC(=O)c1cnc2c(C)c(Cl)ccc2c1N1CCN(CC)CC1 | inconclusive: 35.5 µM [inhibitor, single point] |
| O=C(CN1C(=O)c2ccccc2S1(=O)=O)N1CCCCC1 | inconclusive: 7.08 µM [activator, partial curve, poor fit] |

Following part.

| Structure (SMILES) | Potency |
| --- | --- |
| C=CCn1c(SCC(=O)N2CCN(c3ccccc3)CC2)nnc1-c1ccco1 | inactive |
| O=C(OCc1ccc(F)cc1)c1ccc2c(c1)-c1ccccc1C2=O | inactive |
| Cc1ccc(C)c(OCCOCCN2CC(C)OC(C)C2)c1C (configuration not stated) | inactive |
| COc1ccc(C(F)(F)F)cc1NC(=O)c1nc2nc(C)cc(C(F)F)n2n1 | inactive |
| CCCn1c(CCC(=O)O)ccc1-c1ccc(OC)cc1 | inactive |
| CN(C)C(=O)N1CCN(S(=O)(=O)c2ccc3ccccc3c2)CC1 | inactive |
| O=C(NCCCN1CCOCC1)/C(=C/c1ccco1)NC(=O)c1ccccc1 | inactive |
| O=C(N/N=C/c1ccc(-c2ccc([N+](=O)[O-])cc2)o1)C(O)c1ccccc1 (configuration not stated) | inconclusive: 3.16 µM [inhibitor, single point] |
| CC1Cc2ccccc2N1C(=O)CSc1nnnn1Cc1ccccc1 (configuration not stated) | inconclusive: 35.5 µM [inhibitor, single point] |
| CC(=O)Cc1nsc(NC(=O)c2ccc(Br)o2)n1 | inactive |
| CCc1cc2c(nc1CC)CCN(CCC(C)=NOC[C@@H](O)[C@H]1O[C@@H]3OC(C)(C)O[C@H]3[C@@H]1O)C2 | inactive |
| Cc1ccc(C(=O)NC2CC(C)(C)NC(C)(C)C2)cc1Cl | inconclusive: 25.1 µM [inhibitor, partial curve, poor fit] |
| CCc1nccn1CCC(=O)N1CCCC(N2CCN(c3ccccc3C)CC2)C1 (configuration not stated) | inactive |
| CC(=O)Nc1ccc(-c2ccc(NC(C)=O)cc2)cc1 | inconclusive: 3.55 µM [activator, partial curve, poor fit] |
| O=C(Nc1nnc(SCc2ccc(F)cc2)s1)C1CC(=O)N(Cc2ccccc2)C1 (configuration not stated) | inconclusive: 35.5 µM [inhibitor, single point] |
| C#C[C@]1(O)CC[C@H]2[C@@H]3CCC4=Cc5oncc5CC4(C)[C@H]3CCC21C (some centres not stated) | active: 20.6 µM |
| O=C(/C=C/Nc1ccc(F)c(F)c1)c1ccc(Br)cc1 | inconclusive: 0.708 µM [activator, partial curve, poor fit] |
| CC(OC(=O)Cc1cccc(C(F)(F)F)c1)C(=O)Nc1ccc(Cl)cn1 (configuration not stated) | inactive |
| CN(C(=S)NC(=O)c1ccccc1Br)C1CCCCC1 | inactive |
| O=C(O)c1ccccc1C(=O)OCCCCOC(=O)c1ccccc1C(=O)O | inconclusive: 1.16 µM [inhibitor, partial curve, poor fit] |
| CC(=O)c1cc(CN2CCC(C(=O)Nc3ccc(-n4nc(C)cc4C)cc3)CC2)cs1 | inconclusive: 20 µM [inhibitor, single point] |
| CCCNC(=O)c1ccc(C)c(NC(=O)C2=C(C)OCCS2)c1 | inactive |
| Cn1cccc1C(=O)NC(=O)COC(=O)c1ccc(S(C)(=O)=O)cc1 | inconclusive: 35.5 µM [activator, partial curve, poor fit] |
| COc1ccccc1N1C(=O)c2cccc3c(C(=O)O)ccc(c23)C1=O | inactive |

| Structure (SMILES) | Potency |
| --- | --- |
| CCC(C)(C)NC(=O)C(c1ccc(OC)cc1)N(C(=O)CCC(=O)Nc1cc(C)on1)c1ccc2c(c1)OCO2 (configuration not stated) | inconclusive: 10 µM [inhibitor, partial curve, poor fit] |
| C=CC(=O)N=c1sc2ccccc2n1-c1ccccc1 | inconclusive: 10 µM [inhibitor, partial curve, poor fit] |
| O=C(Nc1ccc(F)cc1)N1CCCC(c2nc3c(nnn3Cc3ccccc3Cl)c(=O)[nH]2)C1 (configuration not stated) | inconclusive: 1.58 µM [inhibitor, partial curve, poor fit] |
| Cc1ccc(CN(Cc2cccn2-c2nnc(N3CCCC3=O)s2)C(=O)Nc2cc(C)cc(C)c2)cc1 | inactive |
| O=C(C1CCCN(S(=O)(=O)c2cccs2)C1)N1CCN(c2ccccc2F)CC1 (configuration not stated) | inactive |
| Cc1cc(/C=C(\C#N)C(=O)OCC(=O)NC(=O)NC(C)(C)C)c(C)n1CCC(C)C | inconclusive: 2.51 µM [inhibitor, partial curve, poor fit] |
| O=C(Nc1ccccc1N1CCCC1)c1ccc(N2CCCC2=O)cc1 | inactive |
| Cn1c(Cl)c(C(=O)Nc2ccc(Cl)cc2)c2ccccc21 | inconclusive: 5.01 µM [inhibitor, full curve, poor fit] |
| Cc1cccc(N2C(=O)NC(=O)/C(=C\c3cnc(-c4ccccc4)nc3)C2=O)c1 | inconclusive: 7.94 µM [inhibitor, partial curve, poor fit] |
| Cc1nc(N)nc(Nc2ccc(C#N)cc2)c1Br | inconclusive: 6.31 µM [inhibitor, single point] |
| COC(=O)c1nc2nc(C)cc(=O)n2[nH]1 | inconclusive: 0.112 µM [inhibitor, full curve, poor fit] |
| Cn1c(C(=O)N2CCN(c3ccc(Cl)cc3)CC2)cc2c(=O)[nH]c3ccccc3c21 | inconclusive: 0.562 µM [inhibitor, full curve, poor fit] |
| CCOC(=O)c1c(NC(C)=O)sc2c(OC)cccc12 | inactive |
| O=C(CSc1nnc2ccccn12)NCCN1C(=O)CSC1=O | inactive |
| COC(=O)Cc1ccc(NC(=O)c2ccccc2Br)cc1 | inconclusive: 3.16 µM [inhibitor, single point] |
| Cc1ccc(CN2CCN(/N=C/C=C/c3ccccc3[N+](=O)[O-])CC2)cc1 | inactive |
| CN(C)c1nc(N/N=C/c2ccccc2O)nc(Nc2ccc(F)cc2)n1 | inconclusive: 15.8 µM [inhibitor, partial curve, poor fit] |
| COc1ccccc1CNC(=O)CSc1nc2c(oc3ccccc32)c(=O)n1CC1CCCO1 (configuration not stated) | inconclusive: 0.447 µM [activator, single point] |
| Cc1cc(C)cc(OCCOCCn2c(-c3ccc(Cl)cc3)nc3ccccc3c2=O)c1 | active: 7.08 µM |
| CCN1C(=O)/C(=C/c2cc(C)n(C)c2C)SC1=Nc1ccc(OC)cc1 | inconclusive: 22.4 µM [inhibitor, single point] |
| COc1ccc(-c2cc(-n3c(C(F)(F)F)nc4ccccc43)n(CCC#N)n2)cc1 | inconclusive: 35.5 µM [inhibitor, single point] |
| Cc1ccc(NC(=O)CN2C(=O)NC(C)(C3CC3)C2=O)cc1S(=O)(=O)N1CCCCC1 (configuration not stated) | inconclusive: 0.708 µM [inhibitor, partial curve, poor fit] |
| COc1ccc2oc(=O)c(C(=O)Nc3cccc(C)c3)cc2c1 | inconclusive: 3.16 µM [activator, single point] |
| COc1ccc(-c2nnc3cccc(Cl)n23)c(OC)c1 | inconclusive: 35.5 µM [activator, single point] |
